# This is one part of the list. Shown are side measurements of this screen, not its main read-out; they come without a call. Compounds called inactive in the main read-out are mostly missing here. The note in brackets gives the kind of curve behind each potency; many fits are weak.
# Experiment: qHTS Assay for Lipid Storage Modulators in Drosophila S3 Cells;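 for cell number change: cells counted by Cell Tracker Red CMTPX staining in the red channel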
# Conditions: BODIPY lipid droplet fluorescence, 18-24 h; for cell number change: measured here: cell count max response, cells fed with added oleic acid
# In short: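 Drosophila S3 cells got compounds at several concentrations plus oleic acid (400 uM solution). Laser-scanning cytometry with 488 nm excitation read lipid droplets at 500-530 nm and cells at 575-640 nm. Percent activity was relative to 20 uM Triacsin C.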
# [1] = measured here: cell number channel AC50, cells fed with added oleic acid
# [2] = measured here: lipid fluorescence (Fed channel) AC50, cells fed with added oleic acid
Compound,cell number change,AC50 [1],AC50 [2]
O=C(NCC1CCN(Cc2ccc(F)cc2)CC1)Nc1cc(F)ccc1F,4.96%,"0.82 µM [rising, full curve, poor fit]",
O=C1COc2ccc(C(=O)COC(=O)/C=C/c3ccco3)cc2N1,5.94%,,"0.92 µM [falling, partial curve, poor fit]"
N#Cc1c(-c2ccccc2F)cc(C2CC2)nc1SCC(=O)c1cccs1,-5.73%,,"29.1 µM [falling, single point]"
CCOC(=O)C1CN(S(=O)(=O)c2ccc(F)cc2)C1,17.3%,,"1.16 µM [rising, full curve, poor fit]"
Cc1cccc(NC(=O)CCCCCN2C(=O)[C@@H]3Cc4ccccc4CN3C2=O)c1,18.2%,,"29.1 µM [rising, single point]"
COc1ccc(C(=O)Nc2ccccc2C(=O)N2CCOCC2)cc1OC,2.63%,,
CC1(C)Cc2noc(N)c2C(C)(C)N1OC(=O)c1ccccc1,,"1.3 µM [falling, partial curve]","0.58 µM [falling, single point]"
Cc1cc(N2CCOCC2)nc(SCc2ccc(Cl)cc2Cl)n1,16.8%,,
Cc1c(C#N)c(O)n(CCO)c(=O)c1N=Nc1ccccc1,33%,"2.06 µM [rising, single point]",
CC(=O)Nc1ccc(C2NC(=O)c3ccccc3O2)cc1 (configuration not stated),-0.971%,,"0.184 µM [falling, full curve, poor fit]"
COc1ccccc1N(Cc1ccccc1)S(=O)(=O)c1cccc(C(=O)Nc2ccc(C(C)=O)cc2)c1,-48%,"29.1 µM [falling, single point]","25.9 µM [falling, single point]"
CC(C)OC(=O)c1c2nc3ccccc3nc2n2c1[nH]c(=O)c1ccccc12,,"0.291 µM [rising, full curve]","0.411 µM [rising, full curve]"
C=CCNC(=S)NCC,-0.696%,,
O=C(CN1CCN(C(=O)CNC(=O)c2ccc3c(c2)OCO3)CC1)Nc1cccc(F)c1,27.6%,,"11.6 µM [rising, partial curve]"
CCn1c(=N)n(CC(=O)c2ccc(OC)cc2)c2ccccc21,1.25%,"0.206 µM [falling, full curve, poor fit]","0.206 µM [falling, full curve, poor fit]"
CCOC(=O)c1ccccc1NC(=O)CSC(C)C(=O)Nc1cc(C)on1 (configuration not stated),-5.93%,,"18.4 µM [falling, single point]"
Cc1nnc(SCc2nnc(-c3cccs3)o2)n1C1CCCCC1,,"2.59 µM [rising, single point]",
NC(=O)c1c(NC(=O)c2ccccc2F)sc2c1CCCC2,,,"5.17 µM [falling, full curve]"
COc1cc(/C=C(\C#N)C(=O)Nc2ccccc2)ccc1OCCN1CCOCC1,-24.8%,,"29.1 µM [falling, single point]"
O=c1[nH]c(C(F)(F)F)nc2c1nnn2Cc1ccccc1F,13.9%,,

Compound,cell number change,AC50 [1],AC50 [2]
O=C(CN(C(=O)c1csnn1)c1ccc(F)c(Cl)c1)NCc1ccc2c(c1)OCO2,12.8%,,"0.0259 µM [rising, full curve]"
O=C(Nc1ccc(S(=O)(=O)Nc2ncccn2)cc1)c1cccnc1,36.2%,"20.6 µM [rising, single point]","18.4 µM [rising, single point]"
O=C1C(C=NCc2cccnc2)=C(O)c2ccccc21,-9.93%,,
COc1ccc(/C=C\C(=O)c2c(O)ccc3c(C)cc(=O)oc23)cc1OC,-47.4%,"13 µM [falling, single point]","13 µM [falling, partial curve]"
CCCOc1c(Br)cc(/C=N/O)cc1OC,-54.4%,"16.4 µM [falling, single point]","29.1 µM [falling, single point]"
O=C(O)CCCNS(=O)(=O)c1cccc2nsnc12,-0.0849%,,"29.1 µM [falling, partial curve]"
Cc1cccc(/C=C2/SC(=O)N(Cc3ccccc3Cl)C2=O)n1,0.149%,,
CCc1ccc(C(=O)NNc2ccc(S(N)(=O)=O)cc2)cc1,-16.3%,,"2.06 µM [falling, full curve, poor fit]"
COc1cc(C(=O)Nc2ccc(-n3cnnn3)c(C)c2)cc(OC)c1OC,-2.97%,,"13 µM [falling, partial curve, poor fit]"
CN1CCN(c2ccc(NC(=O)c3ccc4c(c3)[nH]c(=O)n4Cc3ccc(F)cc3)cc2)CC1,,,"20.6 µM [rising, single point]"
O=C(NC1CCCCC1)c1sc(=S)n2c1[nH]c(=O)c1ccccc12,-53.3%,"23.1 µM [falling, single point]","23.1 µM [falling, single point]"
Cc1ccccc1CCN(CC(=O)NC1CCCCC1)C(=O)c1csnn1,7.6%,"6.51 µM [falling, single point]",
Cc1c(C(=O)OC(C)C)sc(N)c1C(=O)OC(C)C,-64.3%,"18.4 µM [falling, partial curve]","8.2 µM [falling, single point]"
Cc1ccc(OCC(=O)N/N=C/c2ccncc2)cc1,14.1%,,"3.26 µM [rising, single point]"
COc1ccc(N(CC(=O)NC2CCCC2)C(=O)c2ccc(C)s2)c(OC)c1,18.9%,,"0.231 µM [falling, full curve, poor fit]"
CN(C)c1ccc(C(CNC(=O)c2cccs2)N(C)C)cc1 (configuration not stated),0.345%,,"0.651 µM [falling, single point]"
Cc1c(CCC(=O)NCCCn2ccnc2)c(=O)oc2c(C)c3occ(C(C)(C)C)c3cc12,18.7%,,
CCOCCn1[nH]c2ccccc2c1=O,-4.15%,,"0.146 µM [falling, full curve, poor fit]"
Cc1cc(C)c(C)c(S(=O)(=O)NCC(=O)Nc2ccc(F)cc2)c1C,8.71%,,
CCOc1ccc(CCNC(=O)CN(C)S(=O)(=O)c2ccc3c(c2)CCC(=O)N3)cc1OCC,5.94%,,

# 3 compounds drawn at random from the list so far, as already listed:
Compound,cell number change,AC50 [1],AC50 [2]
Cc1cccc(/C=C2/SC(=O)N(Cc3ccccc3Cl)C2=O)n1,0.149%,,
Cc1cc(C)c(C)c(S(=O)(=O)NCC(=O)Nc2ccc(F)cc2)c1C,8.71%,,
O=C(NC1CCCCC1)c1sc(=S)n2c1[nH]c(=O)c1ccccc12,-53.3%,"23.1 µM [falling, single point]","23.1 µM [falling, single point]"

# Continued:

Compound,cell number change,AC50 [1],AC50 [2]
CCNC(=S)N1CCN(CCN=CC2=C(O)CC(c3ccco3)CC2=O)CC1 (configuration not stated),12.7%,,"5.8 µM [falling, single point]"
O=C(Cc1ccccc1)NCCN1CCCC1,-1.26%,,"0.00517 µM [falling, full curve, poor fit]"
O=C(Nc1nc(-c2ccccc2)cs1)C1CCCN(S(=O)(=O)c2cccc([N+](=O)[O-])c2)C1 (configuration not stated),,"0.651 µM [rising, single point]","0.731 µM [rising, full curve]"
C[C@@]12CCC3[C@@](CCC4[C@@]3(C)CCC[C@@]4(C)C(=O)NC3CCCCC3)(CC1=O)C2 (some centres not stated),-23.5%,,"0.103 µM [falling, single point]"
CCOc1ccc(C2=Nc3ccc(Br)cc3C(c3ccc(N4CCOCC4)cc3)=NN2)cc1,-14.5%,,"5.17 µM [falling, full curve, poor fit]"
CN1C(=O)/C(=C/c2cccc([N+](=O)[O-])c2)C(=O)N1c1ccccc1,7.04%,,
Cc1cc(Nc2ccc(C)c(C)c2)n2nc(C)nc2n1,,"1.64 µM [rising, partial curve]","2.06 µM [rising, partial curve]"
N/C(=N\OC(=O)c1ccc(=O)n(Cc2ccccc2)c1)c1ccccn1,-33.8%,,"18.4 µM [falling, partial curve, poor fit]"
COc1ccc(/C=N/c2oc(-c3ccccc3)cc2C#N)cc1OC,,"6.51 µM [rising, single point]",
CC1(C(=O)OCC(=O)NNC(=O)COc2ccc(Cl)cc2)CC1(Cl)Cl (configuration not stated),-1.3%,,"1.64 µM [rising, full curve]"
Cc1ccc2[nH]c(O)c(N=NC(=O)C(C)n3cnc4ccccc4c3=O)c2c1 (configuration not stated),66.9%,"29.1 µM [rising, single point]",
CC(C)[C@H](NC(=O)c1ccccc1F)C(=O)NCc1ccc(S(N)(=O)=O)cc1,-14.2%,,"0.00461 µM [falling, full curve, poor fit]"
Cc1c(C(=O)OCC(=O)NCc2ccc3c(c2)OCO3)cccc1[N+](=O)[O-],,,"23.1 µM [falling, single point]"
C/C(N)=C(/C#N)C(=O)COC(=O)C1CCC(C(C)(C)C)CC1 (configuration not stated),-54%,"0.206 µM [falling, full curve, poor fit]","2.06 µM [falling, partial curve]"
COc1cc(C(=O)Nc2nccs2)c(Br)c(OC)c1OC,,"3.26 µM [rising, single point]","3.66 µM [rising, partial curve]"
O=C(O)c1ccccc1NC(=O)C1CCCO1 (configuration not stated),,,"0.517 µM [falling, full curve, poor fit]"
COc1ccc(-n2c(Cc3cc(=O)[nH]c(=O)[nH]3)nnc2SCC(=O)N2CCC(C)CC2)cc1,0.659%,,"2.06 µM [falling, partial curve]"
CCOC(=O)c1cnc(Nc2nc3ccccc3o2)nc1C,49.2%,"16.4 µM [rising, single point]",
Fc1cccc(Cl)c1Cn1nnc(-c2ccc3c(c2)OCO3)n1,-15.5%,,"0.00461 µM [rising, full curve, poor fit]"
COc1ccc(NC(=O)C2CCCCN2N)cc1OCC(C)C (configuration not stated),35.7%,"13 µM [rising, single point]",
